{"sequences": {"note": "The chains behind the UniProt entries cited, without tags or fusion partners. Where a name states a change or a piece, a line headed by the entry shows the natural chain unless it says otherwise.", "UniProt P51587": "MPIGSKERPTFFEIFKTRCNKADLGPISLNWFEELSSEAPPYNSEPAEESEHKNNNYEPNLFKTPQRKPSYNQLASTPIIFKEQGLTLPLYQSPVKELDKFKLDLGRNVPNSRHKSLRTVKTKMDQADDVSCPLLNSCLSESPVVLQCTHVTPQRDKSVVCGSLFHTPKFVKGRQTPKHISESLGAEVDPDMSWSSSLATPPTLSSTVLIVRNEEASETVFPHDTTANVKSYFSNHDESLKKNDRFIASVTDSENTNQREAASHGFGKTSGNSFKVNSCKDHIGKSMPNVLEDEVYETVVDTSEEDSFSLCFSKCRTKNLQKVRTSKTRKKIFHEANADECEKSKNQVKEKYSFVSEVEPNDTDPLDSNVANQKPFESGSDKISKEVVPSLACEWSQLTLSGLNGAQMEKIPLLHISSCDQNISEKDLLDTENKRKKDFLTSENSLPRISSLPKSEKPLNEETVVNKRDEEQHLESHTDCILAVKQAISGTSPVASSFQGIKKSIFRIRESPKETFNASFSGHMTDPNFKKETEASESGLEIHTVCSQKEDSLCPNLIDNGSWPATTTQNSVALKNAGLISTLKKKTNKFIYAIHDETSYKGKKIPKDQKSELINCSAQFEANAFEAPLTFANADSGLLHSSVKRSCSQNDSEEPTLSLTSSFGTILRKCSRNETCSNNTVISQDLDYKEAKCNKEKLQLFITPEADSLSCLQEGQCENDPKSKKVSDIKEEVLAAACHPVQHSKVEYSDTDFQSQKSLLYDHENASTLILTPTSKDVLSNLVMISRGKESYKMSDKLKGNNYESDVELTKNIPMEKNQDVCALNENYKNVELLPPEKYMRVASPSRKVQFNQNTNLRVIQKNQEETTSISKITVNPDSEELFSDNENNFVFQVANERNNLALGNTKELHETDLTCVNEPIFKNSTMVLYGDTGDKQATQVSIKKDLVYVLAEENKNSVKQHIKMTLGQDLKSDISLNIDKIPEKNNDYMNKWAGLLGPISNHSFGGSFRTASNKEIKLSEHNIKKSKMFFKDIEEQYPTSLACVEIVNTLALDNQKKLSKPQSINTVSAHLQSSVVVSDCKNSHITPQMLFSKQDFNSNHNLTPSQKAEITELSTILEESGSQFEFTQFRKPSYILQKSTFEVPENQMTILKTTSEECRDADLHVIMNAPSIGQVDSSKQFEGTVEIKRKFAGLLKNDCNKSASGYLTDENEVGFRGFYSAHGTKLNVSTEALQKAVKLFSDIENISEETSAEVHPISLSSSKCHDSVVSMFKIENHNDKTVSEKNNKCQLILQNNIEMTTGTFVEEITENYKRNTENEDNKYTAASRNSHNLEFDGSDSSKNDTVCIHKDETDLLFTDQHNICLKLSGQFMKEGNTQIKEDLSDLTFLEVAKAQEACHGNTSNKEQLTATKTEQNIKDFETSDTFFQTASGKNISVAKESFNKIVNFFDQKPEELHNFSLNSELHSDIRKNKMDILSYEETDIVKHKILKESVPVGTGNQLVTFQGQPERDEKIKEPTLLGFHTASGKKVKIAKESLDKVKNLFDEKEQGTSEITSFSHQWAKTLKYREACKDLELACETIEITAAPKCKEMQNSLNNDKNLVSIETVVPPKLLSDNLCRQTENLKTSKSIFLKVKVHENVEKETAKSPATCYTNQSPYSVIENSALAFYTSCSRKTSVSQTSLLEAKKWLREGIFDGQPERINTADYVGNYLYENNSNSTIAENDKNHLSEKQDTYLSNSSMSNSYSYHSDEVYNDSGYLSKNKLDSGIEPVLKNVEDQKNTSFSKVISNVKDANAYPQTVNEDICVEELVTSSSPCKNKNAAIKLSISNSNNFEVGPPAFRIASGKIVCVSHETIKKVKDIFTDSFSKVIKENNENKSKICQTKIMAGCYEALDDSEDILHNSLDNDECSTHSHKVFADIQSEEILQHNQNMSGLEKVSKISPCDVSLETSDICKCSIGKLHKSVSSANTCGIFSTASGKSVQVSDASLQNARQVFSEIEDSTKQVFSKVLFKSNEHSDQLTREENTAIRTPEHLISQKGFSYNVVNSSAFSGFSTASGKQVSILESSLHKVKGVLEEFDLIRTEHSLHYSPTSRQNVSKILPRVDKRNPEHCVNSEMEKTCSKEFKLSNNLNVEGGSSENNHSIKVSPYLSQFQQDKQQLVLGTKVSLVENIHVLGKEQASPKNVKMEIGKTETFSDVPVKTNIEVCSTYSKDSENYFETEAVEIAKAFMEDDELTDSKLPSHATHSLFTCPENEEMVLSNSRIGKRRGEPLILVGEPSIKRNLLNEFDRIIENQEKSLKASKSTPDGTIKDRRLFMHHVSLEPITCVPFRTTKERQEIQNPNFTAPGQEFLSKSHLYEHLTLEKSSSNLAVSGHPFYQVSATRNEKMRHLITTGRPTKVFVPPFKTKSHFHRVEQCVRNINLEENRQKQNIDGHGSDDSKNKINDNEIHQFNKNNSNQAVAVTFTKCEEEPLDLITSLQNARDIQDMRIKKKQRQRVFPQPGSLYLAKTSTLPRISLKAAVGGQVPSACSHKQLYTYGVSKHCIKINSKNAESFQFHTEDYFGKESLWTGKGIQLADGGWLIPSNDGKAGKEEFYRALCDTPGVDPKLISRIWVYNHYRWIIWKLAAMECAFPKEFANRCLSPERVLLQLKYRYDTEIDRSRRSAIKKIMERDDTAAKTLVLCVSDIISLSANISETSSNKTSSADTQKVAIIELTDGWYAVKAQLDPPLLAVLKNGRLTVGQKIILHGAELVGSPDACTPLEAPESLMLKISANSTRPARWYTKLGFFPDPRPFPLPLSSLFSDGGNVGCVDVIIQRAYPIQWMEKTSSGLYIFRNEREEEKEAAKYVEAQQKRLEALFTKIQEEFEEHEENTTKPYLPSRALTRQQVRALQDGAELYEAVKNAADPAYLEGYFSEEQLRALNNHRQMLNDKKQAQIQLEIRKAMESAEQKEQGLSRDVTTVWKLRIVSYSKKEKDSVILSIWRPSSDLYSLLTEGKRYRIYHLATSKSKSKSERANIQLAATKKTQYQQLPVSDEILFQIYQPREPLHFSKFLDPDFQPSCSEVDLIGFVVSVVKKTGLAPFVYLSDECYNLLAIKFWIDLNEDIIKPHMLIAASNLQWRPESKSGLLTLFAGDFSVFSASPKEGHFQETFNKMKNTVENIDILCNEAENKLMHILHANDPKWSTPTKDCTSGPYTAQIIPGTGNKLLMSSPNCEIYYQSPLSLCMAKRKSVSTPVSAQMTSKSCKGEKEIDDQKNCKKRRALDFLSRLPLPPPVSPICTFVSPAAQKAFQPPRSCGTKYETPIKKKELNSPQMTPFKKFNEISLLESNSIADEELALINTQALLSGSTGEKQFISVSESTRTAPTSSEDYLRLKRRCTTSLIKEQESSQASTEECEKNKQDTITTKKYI", "UniProt Q5PSV4": "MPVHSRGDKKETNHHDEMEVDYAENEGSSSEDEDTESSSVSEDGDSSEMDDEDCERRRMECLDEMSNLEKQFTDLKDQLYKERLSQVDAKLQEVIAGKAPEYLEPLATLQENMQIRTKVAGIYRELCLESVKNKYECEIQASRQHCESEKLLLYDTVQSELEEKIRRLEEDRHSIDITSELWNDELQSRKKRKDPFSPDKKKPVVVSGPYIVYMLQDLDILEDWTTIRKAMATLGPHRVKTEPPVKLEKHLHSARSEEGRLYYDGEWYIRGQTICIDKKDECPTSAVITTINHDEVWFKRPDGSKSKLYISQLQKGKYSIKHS", "UniProt Q14781, whole entry, looked up": "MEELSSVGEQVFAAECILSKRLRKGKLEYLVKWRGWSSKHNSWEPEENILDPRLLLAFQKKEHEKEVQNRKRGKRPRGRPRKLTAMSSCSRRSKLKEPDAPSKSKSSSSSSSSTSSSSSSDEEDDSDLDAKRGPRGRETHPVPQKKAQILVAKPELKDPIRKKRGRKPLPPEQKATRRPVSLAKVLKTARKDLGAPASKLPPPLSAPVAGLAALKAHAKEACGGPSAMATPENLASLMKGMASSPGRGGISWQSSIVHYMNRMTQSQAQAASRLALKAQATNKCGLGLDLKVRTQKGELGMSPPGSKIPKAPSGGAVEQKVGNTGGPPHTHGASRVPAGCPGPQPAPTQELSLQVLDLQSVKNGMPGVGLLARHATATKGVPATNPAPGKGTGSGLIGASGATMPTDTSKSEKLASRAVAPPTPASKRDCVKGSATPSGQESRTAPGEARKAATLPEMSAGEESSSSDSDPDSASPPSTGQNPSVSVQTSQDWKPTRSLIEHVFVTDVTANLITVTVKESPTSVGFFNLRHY", "UniProt P38398, whole entry, looked up": "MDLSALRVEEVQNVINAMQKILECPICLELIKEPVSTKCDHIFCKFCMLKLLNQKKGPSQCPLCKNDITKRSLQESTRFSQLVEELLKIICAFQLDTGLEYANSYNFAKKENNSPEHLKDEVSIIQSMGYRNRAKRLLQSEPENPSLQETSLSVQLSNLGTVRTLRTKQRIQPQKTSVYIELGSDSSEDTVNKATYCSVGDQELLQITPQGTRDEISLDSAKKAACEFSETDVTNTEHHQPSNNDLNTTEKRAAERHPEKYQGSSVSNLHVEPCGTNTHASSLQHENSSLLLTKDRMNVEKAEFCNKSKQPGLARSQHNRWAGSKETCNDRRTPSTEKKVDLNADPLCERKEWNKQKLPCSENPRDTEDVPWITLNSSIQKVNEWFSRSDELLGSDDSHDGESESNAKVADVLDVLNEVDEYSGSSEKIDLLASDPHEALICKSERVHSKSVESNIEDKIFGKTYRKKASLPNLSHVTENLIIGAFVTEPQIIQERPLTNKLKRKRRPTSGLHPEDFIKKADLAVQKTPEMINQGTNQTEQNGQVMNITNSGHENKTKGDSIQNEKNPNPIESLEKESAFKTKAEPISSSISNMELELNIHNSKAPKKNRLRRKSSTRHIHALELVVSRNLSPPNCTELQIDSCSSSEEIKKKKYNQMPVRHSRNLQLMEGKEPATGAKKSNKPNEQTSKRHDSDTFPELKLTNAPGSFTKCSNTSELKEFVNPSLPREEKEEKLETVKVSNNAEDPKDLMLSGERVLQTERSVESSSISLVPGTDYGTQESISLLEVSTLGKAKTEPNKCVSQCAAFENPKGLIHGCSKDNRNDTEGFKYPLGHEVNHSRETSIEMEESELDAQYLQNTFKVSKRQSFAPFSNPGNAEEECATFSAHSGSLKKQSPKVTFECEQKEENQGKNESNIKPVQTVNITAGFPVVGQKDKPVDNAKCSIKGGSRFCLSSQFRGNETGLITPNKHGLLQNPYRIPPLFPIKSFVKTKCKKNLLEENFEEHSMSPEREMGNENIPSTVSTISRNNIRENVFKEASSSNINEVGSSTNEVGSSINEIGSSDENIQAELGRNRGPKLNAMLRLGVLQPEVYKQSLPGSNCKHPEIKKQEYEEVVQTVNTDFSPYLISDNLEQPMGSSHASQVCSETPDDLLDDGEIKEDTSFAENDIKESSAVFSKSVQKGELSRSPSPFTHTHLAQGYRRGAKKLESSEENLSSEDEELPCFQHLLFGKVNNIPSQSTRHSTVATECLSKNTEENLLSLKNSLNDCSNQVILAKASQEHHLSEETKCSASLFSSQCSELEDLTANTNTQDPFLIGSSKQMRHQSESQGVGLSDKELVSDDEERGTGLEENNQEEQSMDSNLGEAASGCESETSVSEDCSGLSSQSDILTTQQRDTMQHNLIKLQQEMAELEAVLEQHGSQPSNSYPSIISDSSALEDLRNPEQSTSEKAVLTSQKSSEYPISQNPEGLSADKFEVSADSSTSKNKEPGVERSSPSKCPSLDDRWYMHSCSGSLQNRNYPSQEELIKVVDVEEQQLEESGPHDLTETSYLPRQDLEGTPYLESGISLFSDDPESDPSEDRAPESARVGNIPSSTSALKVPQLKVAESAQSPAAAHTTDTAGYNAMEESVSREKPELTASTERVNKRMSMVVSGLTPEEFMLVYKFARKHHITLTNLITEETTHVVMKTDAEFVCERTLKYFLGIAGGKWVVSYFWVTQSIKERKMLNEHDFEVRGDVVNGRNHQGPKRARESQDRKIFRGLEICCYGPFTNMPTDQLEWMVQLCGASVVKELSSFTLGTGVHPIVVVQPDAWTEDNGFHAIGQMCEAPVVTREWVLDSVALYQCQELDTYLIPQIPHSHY", "UniProt O75828": "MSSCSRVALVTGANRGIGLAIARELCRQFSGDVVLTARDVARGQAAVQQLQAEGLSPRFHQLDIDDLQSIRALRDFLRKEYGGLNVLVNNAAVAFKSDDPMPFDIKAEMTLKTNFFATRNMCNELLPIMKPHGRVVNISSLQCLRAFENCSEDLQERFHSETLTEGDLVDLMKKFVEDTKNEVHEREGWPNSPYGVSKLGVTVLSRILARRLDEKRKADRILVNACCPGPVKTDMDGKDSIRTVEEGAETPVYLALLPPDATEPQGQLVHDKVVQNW"}, "source": "the supplement of paper PMC11732987", "about": "“Enantioselective OTUD7B fragment discovery through chemoproteomics screening and high-throughput optimisation” (Communications Chemistry, 2025)", "note": "The list shows a part of the results. The data scatter; read single values as rough."}
{"compound": "ClCC(=O)N[C@H]1CCCc2ccccc12", "test": "log2 mean competition ratio of IA-DTB cysteine labelling (DMSO/compound) (log2 ratio); higher = stronger cysteine engagement by compound", "conditions": "200 µM; treatment time: 4 h; cell line lysate: HEK293T", "protocol": "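IA-DTB competitive cysteine chemoproteomics in HEK293T RIPA lysate. Lysates were treated with compound 29 or 30 at 50 or 200 µM for 4 h, then IA-DTB (500 µM, 1 h), trypsin-digested, NeutrAvidin-enriched and analysed by diaPASEF. Competition ratio = intensity DMSO / intensity compound (n=4 treated, n=64 DMSO); binding: mean log2 CR ≥ 1 and p ≤ 0.05 plus QC filters. Target is the cysteine site.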"}
{"target": "BRCA2 C2117 (UniProt P51587)", "log2 mean competition ratio": -0.0268}
{"target": "CADPS2 C919", "log2 mean competition ratio": -0.323}
{"target": "BRCA2 C341 (UniProt P51587)", "log2 mean competition ratio": 0.0383}
{"target": "BRCA2 C822 (UniProt P51587)", "log2 mean competition ratio": -0.198}
{"target": "BRCA2 C3198 (UniProt P51587)", "log2 mean competition ratio": -0.34}
{"target": "BRMS1L C127 (UniProt Q5PSV4)", "log2 mean competition ratio": -0.0667}
{"target": "CBX2 C89 (UniProt Q14781)", "log2 mean competition ratio": -0.02}
{"target": "BRD7 C338 (UniProt Q9NPI1)", "log2 mean competition ratio": 0.147}
{"target": "BRCA1 C1103 (UniProt P38398)", "log2 mean competition ratio": 0.303}
{"target": "CAD C787", "log2 mean competition ratio": -0.33}
{"target": "CBR3 C122 (UniProt O75828)", "log2 mean competition ratio": -0.122}
{"target": "BRD7 C107 (UniProt Q9NPI1)", "log2 mean competition ratio": 0.304}
{"target": "CALR C163", "log2 mean competition ratio": -0.176}
{"target": "BRPF1 C570", "log2 mean competition ratio": 0.0391}
